In US7662778B2 (Riken, priority 2003, dated 2010):

Experiment: general procedure: solution-phase peptide synthesis; HBTU/HOBt.H2O/Et3N for fragment coupling; HATU/DIEA for cyclisation
Settings: for cyclisation yield: cyclisation step

| Substance | step yield (late stage modification step) | other results |
| --- | --- | --- |
| cyclo(L-Asu(OPD)-D-Tyr(Me)-L-Ile-D-Pro) | 80% | – |
| cyclo(-L-Hly(For, OH)-D-Tyr(Me)-L-Ile-L-Pro-) | 50% | – |
| cyclo(-L-Hly(For, OBzl)-D-Tyr(Me)-L-Ile-L-Pro-) | – | cyclisation yield: 44% |
| Boc-D-Tyr(Me)-L-Ile-D-Pro-L-Ab6-OH | 96% | – |
| SS-dimer of cyclo(L-Asu(OATP)-D-Tyr(Me)-L-Ile-D-Pro) | 80% | – |
| cyclo(-L-Lys(For, OBzl)-D-Tyr(Me)-L-Ile-D-Pip-) | – | cyclisation yield: 25% |
| Boc-D-Tyr(Me)-L-Ile-D-Pro-L-Ab6-OBzl | – | step yield (coupling step): 89% |
| cyclo(L-Asu(OAPOH)-D-Tyr(Me)-L-Ile-D-Pro) | 40% | – |
| cyclo(-L-Lys(For, OH)-D-Tyr(Me)-L-Ile-D-Pip-) | 93% | – |
| Boc-D-Tyr(Me)-L-Ile-D-Pro-L-Hly(For, OBzl)-OTmse | – | step yield (coupling step): 83% |
| cyclo(-L-Aph-D-Tyr(Me)-L-Ile-D-Pro-) | – | cyclisation yield: 11% |
| cyclo(L-Asu(OAPNH)-D-Tyr(Me)-L-Ile-D-Pro) | 30% | – |
| Boc-L-Aph-D-Tyr(Me)-L-Ile-D-Pro-OH | 92% | – |
| cyclo(-L-Ab6-D-Tyr(Me)-L-Ile-D-Pro-) | – | cyclisation yield: 32% |
| cyclo(-L-Am6(Tfacet)-D-Tyr(Me)-L-Ile-D-Pro-) | 12% | – |
| cyclo(-L-Hly(For, OBzl)-D-Tyr(Me)-L-Ile-D-Pro-) | – | cyclisation yield: 66% |
| TFA.H-D-Tyr(Me)-L-Ile-D-Pro-L-Hly(For, OBzl)-OH | 93% | – |
| cyclo(-L-Asu(O—.Li^+)-D-Tyr(Me)-L-Ile-D-Pro-) | 100% | – |

| Substance | step yield (late stage modification step) | other results |
| --- | --- | --- |
| cyclo(-L-Asu(OMe)-D-Tyr(Me)-L-Ile-D-Pro-) | 76% | – |
| cyclo(-L-Hly(For, OBzl)-D-Tyr(Me)-L-Ile-L-Pip-) | – | cyclisation yield: 28% |
| Boc-L-Aph-D-Tyr(Me)-L-Ile-D-Pro-OBzl | – | step yield (coupling step): 35% |
| TFA.H-D-Tyr(Me)-L-Ile-L-Pro-L-Hly(For, OBzl)-OH | 100% | – |
| cyclo(-L-Tfm-D-Tyr(Me)-L-Ile-D-Pro-) | 40% | – |
| cyclo(-L-A2oc(For, OH)-D-Tyr(Me)-L-Ile-L-Pip-) | 25% | – |
| cyclo(-L-Lys(For, OH)-D-Tyr(Me)-L-Ile-L-Pip-) | 100% | – |
| cyclo(-L-Am6(Ac)-D-Tyr(Me)-L-Ile-D-Pro-) | >100% | – |
| cyclo(-L-Pfe-D-Tyr(Me)-L-Ile-D-Pro-) | 5% | – |
| Boc-D-Tyr(Me)-L-Ile-L-Pro-L-Hly(For, OBzl)-OTmse | – | step yield (coupling step): 69% |
| cyclo(-L-Hly(For, OH)-D-Tyr(Me)-L-Ile-L-Pip-) | 91% | – |
| cyclo(-L-Hly(For, OBzl)-D-Tyr(Me)-L-Ile-D-Pip-) | – | cyclisation yield: 28% |
| cyclo(-L-Hly(For, OH)-D-Tyr(Me)-L-Ile-D-Pro-) | 70% | – |
| cyclo(-L-Hly(For, OH)-D-Tyr(Me)-L-Ile-D-Pip-) | 73% | – |
| cyclo(L-Asu-D-Tyr(Me)-L-Ile-D-Pro) | 100% | – |
| cyclo(-L-A2oc(For, OH)-D-Tyr(Me)-L-Ile-D-Pip-) | 15% | – |
| cyclo(-L-Lys(For, OBzl)-D-Tyr(Me)-L-Ile-L-Pip-) | – | cyclisation yield: 24% |
